The results in this text go back to US20160207991A1.

The chains behind the UniProt entries cited, without tags or fusion partners. Where a name states a change or a piece, a line headed by the entry shows the natural chain unless it says otherwise.
UniProt P08138: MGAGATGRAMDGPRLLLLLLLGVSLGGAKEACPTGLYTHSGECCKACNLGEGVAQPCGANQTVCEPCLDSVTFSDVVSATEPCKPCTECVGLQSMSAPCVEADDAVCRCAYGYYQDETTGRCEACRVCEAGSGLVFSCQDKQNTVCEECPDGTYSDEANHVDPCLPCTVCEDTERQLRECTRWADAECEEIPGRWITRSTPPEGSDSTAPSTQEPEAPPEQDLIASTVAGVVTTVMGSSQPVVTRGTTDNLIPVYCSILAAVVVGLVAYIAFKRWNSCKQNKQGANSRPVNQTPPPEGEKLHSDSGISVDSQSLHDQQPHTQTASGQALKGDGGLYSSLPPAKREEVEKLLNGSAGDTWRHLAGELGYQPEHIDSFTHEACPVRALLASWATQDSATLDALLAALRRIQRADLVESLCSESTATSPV

Results are given in words; binding and its absence hold for the method and conditions named. Some binding calls cover weakened binding; strength is not graded here.

For this experiment, the target named is p75NTR receptor (immobilised on the SPR flow cell) (Homo sapiens (Human)) (UniProt P08138). Description: SPR (Biacore T200): 20 nM BDNF injected over immobilised p75NTR [both panels]. A general note: In SPR one partner is held on a chip, and binding of the other changes the refractive index at the surface.

B1: human brain-derived neurotrophic factor (BDNF) (ligand)
chain: HSDPARRGELSVCDSISEWVTAADKKTAVDMSGGTVTVLEKVPVSKGQLKQYFYETKCNPMGYTKEGCRGIDKRHWNSQCRTTQSYVRALTMDSKKRIGWRFIRIDTSCVCTLTIKRGR
For B1, the binding entry is recorded as “binds”.
